According to patent US8367873B2, “Phenyl-substituted bicyclooctane-1,3-dione derivatives” (Bayer Cropscience AG, priority 2008, dated 2013):
Some of these results come from one statement about several compounds together.

Columns and labels:
Type in all cases: in vivo
[1] = tested on: Alopecurus myosuroides; assay: Herbicidal pre-emergence action; conditions: pre-emergence method, 320 g/ha a.i., against Alopecurus myosuroides, visual assessment after three weeks
Text: (§1) Seeds of monocotylidonous and dicotylidonous weed and crop plants are placed in sandy loam in wood fibre pots and covered with soil. The test compounds, formulated in the form of wettable powders (WP), are then, as an aqueous suspension with a water application rate of 600 l/ha (converted), with 0.2% of wetting agent added, applied to the surface of the covering soil in different amounts.
(§2) After the treatment, the pots are placed in a greenhouse and kept under good growth conditions for the test plants. The visual assessment of the emergence damage on the test plants is carried out after a trial period of three weeks by comparison with the untreated controls (herbicidal effect in percent: 100% effect=the plants have died, 0% effect=like control plants).

[2] = tested on: Echinocloa crus-galli; assay: Herbicidal pre-emergence action; conditions: pre-emergence method, 320 g/ha a.i., against Echinocloa crus-galli, visual assessment after three weeks
Text: as §1, §2

[3] = tested on: Lolium multiflorum; assay: Herbicidal pre-emergence action; conditions: pre-emergence method, 320 g/ha a.i., against Lolium multiflorum, visual assessment after three weeks
Text: as §1, §2

[4] = tested on: Setaria viridis; assay: Herbicidal pre-emergence action; conditions: pre-emergence method, 320 g/ha a.i., against Setaria viridis, visual assessment after three weeks
Text: as §1, §2

[5] = tested on: Alopecurus myosuroides; assay: Herbicidal post-emergence action; conditions: 80 g/ha, against Alopecurus myosuroides, section Post-Emergence Action (sentence prints 'pre-emergence method'), assessed after about three weeks
Description: (§3) Seeds of monocotylidonous and dicotylidonous weed and crop plants are placed in sandy loam in wood fibre pots, covered with soil and cultivated in a greenhouse under good growth conditions. Two to three weeks after sowing, the test plants are treated at the one-leaf stage. The test compounds, formulated as wettable powders (WP), are then with a water application rate of 600 l/ha (converted), with 0.2% of wetting agent added, sprayed onto the green parts of the plants in different amounts. After the test plants have been kept in the greenhouse under optimum growth conditions for about three weeks, the effect of the preparations is assessed visually in comparison to untreated controls (herbicidal effect in percent: 100% effect=the plants have died, 0% effect=like control plants).

[6] = tested on: Echinocloa crus-galli; assay: Herbicidal post-emergence action; conditions: 80 g/ha, against Echinocloa crus-galli, section Post-Emergence Action (sentence prints 'pre-emergence method'), assessed after about three weeks
Description: as §3

[7] = tested on: Lolium multiflorum; assay: Herbicidal post-emergence action; conditions: 80 g/ha, against Lolium multiflorum, section Post-Emergence Action (sentence prints 'pre-emergence method'), assessed after about three weeks
Description: as §3

[8] = tested on: Setaria viridis; assay: Herbicidal post-emergence action; conditions: 80 g/ha, against Setaria viridis, section Post-Emergence Action (sentence prints 'pre-emergence method'), assessed after about three weeks
Description: as §3

[9] = tested on: green peach aphid (Myzus persicae); assay: Myzus test (MYZUPE spray treatment); conditions: spray treatment of Chinese cabbage leaf discs, application rate 500 g/ha, after six days

CCOC(=O)OC1=C(c2c(CC)cc(C)cc2CC)C(=O)C2CC3(CC12)OC(C)CC(C)O3 (mixture of isomers) [I-c-10]
≥ 80%: herbicidal effect in percent [1] | herbicidal effect in percent [2] | herbicidal effect in percent [3] | herbicidal effect in percent [4] | herbicidal effect in percent [5] | herbicidal effect in percent [6] | herbicidal effect in percent [7] | herbicidal effect in percent [8] | effect in percent (aphids killed) [9]

CCOC(=O)OC1=C(c2c(CC)cc(C)cc2CC)C(=O)[C@@H]2CC3(C[C@H]12)OCCCCO3 (relative stereo) [I-c-9]
≥ 80%: herbicidal effect in percent [1] | herbicidal effect in percent [2] | herbicidal effect in percent [3] | herbicidal effect in percent [4] | herbicidal effect in percent [5] | herbicidal effect in percent [6] | herbicidal effect in percent [7] | herbicidal effect in percent [8]

CCc1cc(C)cc(CC)c1C1=C(O)C2CC3(CC2C1=O)OCC(C)O3 (mixture of isomers) [I-a-10]
≥ 80%: herbicidal effect in percent [1] | herbicidal effect in percent [2] | herbicidal effect in percent [3] | herbicidal effect in percent [4] | herbicidal effect in percent [5] | herbicidal effect in percent [6] | herbicidal effect in percent [7] | herbicidal effect in percent [8] | effect in percent (aphids killed) [9]

CCOC(=O)OC1=C(c2c(CC)cc(C)cc2CC)C(=O)[C@@H]2CC3(C[C@H]12)OCCO3 (relative stereo) [I-c-7]
≥ 80%: herbicidal effect in percent [1] | herbicidal effect in percent [2] | herbicidal effect in percent [3] | herbicidal effect in percent [4] | herbicidal effect in percent [5] | herbicidal effect in percent [6] | herbicidal effect in percent [7] | herbicidal effect in percent [8]

CCOC(=O)OC1=C(c2c(CC)cc(C)cc2CC)C(=O)C2CC3(CC12)OCC(C)O3 (mixture of isomers) [I-c-8]
≥ 80%: herbicidal effect in percent [5] | herbicidal effect in percent [6] | herbicidal effect in percent [7] | herbicidal effect in percent [8]

CCOC(=O)OC1=C(c2c(CC)cc(C)cc2CC)C(=O)[C@@H]2CC3(C[C@H]12)OCCCO3 (relative stereo) [I-c-14]
≥ 80%: herbicidal effect in percent [1] | herbicidal effect in percent [2] | herbicidal effect in percent [3] | herbicidal effect in percent [4] | herbicidal effect in percent [5] | herbicidal effect in percent [6] | herbicidal effect in percent [7] | herbicidal effect in percent [8] | effect in percent (aphids killed) [9]

CCc1cc(C)cc(CC)c1C1=C(OC(=O)OC(C)C)[C@H]2C[C@]3(COC(C)(C)O3)C[C@H]2C1=O (relative stereo) [I-c-3]
≥ 80%: herbicidal effect in percent [1] | herbicidal effect in percent [2] | herbicidal effect in percent [3] | herbicidal effect in percent [4] | herbicidal effect in percent [5] | herbicidal effect in percent [6] | herbicidal effect in percent [7] | herbicidal effect in percent [8]

CCOC(=O)OC1=C(c2c(CC)cc(C)cc2CC)C(=O)[C@@H]2CC3(C[C@H]12)SCCS3 (relative stereo) [I-c-15]
≥ 80%: herbicidal effect in percent [5] | herbicidal effect in percent [6] | herbicidal effect in percent [7] | herbicidal effect in percent [8]

CCOC(=O)OC1=C(c2c(CC)cc(C)cc2CC)C(=O)[C@@H]2CC3(C[C@H]12)OCC=CCO3 (relative stereo) [I-c-11]
≥ 80%: herbicidal effect in percent [1] | herbicidal effect in percent [2] | herbicidal effect in percent [3] | herbicidal effect in percent [4] | herbicidal effect in percent [5] | herbicidal effect in percent [6] | herbicidal effect in percent [7] | herbicidal effect in percent [8]

C=C1COC2(C[C@@H]3C(OC(=O)OCC)=C(c4c(CC)cc(C)cc4CC)C(=O)[C@@H]3C2)OC1 (relative stereo) [I-c-12]
≥ 80%: herbicidal effect in percent [1] | herbicidal effect in percent [2] | herbicidal effect in percent [3] | herbicidal effect in percent [4] | herbicidal effect in percent [5] | herbicidal effect in percent [6] | herbicidal effect in percent [7] | herbicidal effect in percent [8]

CCc1cc(C)cc(CC)c1C1=C(OC(=O)OC)[C@H]2C[C@]3(COC(C)(C)O3)C[C@H]2C1=O (relative stereo) [I-c-4]
≥ 80%: herbicidal effect in percent [1] | herbicidal effect in percent [2] | herbicidal effect in percent [3] | herbicidal effect in percent [4]
